These are yes or no findings as the source states them, for the method shown. Binding seen in cells or lysates may run through a third protein. A yes stands for co-enrichment or nearness to the bait. Other partners may have been found.
Molecular target: myc-EXOSC3 (UniProt Q7TQK4)
Experiment: affinity purification with mass spectrometry; myc-EXOSC3 precipitated with anti-myc magnetic beads from lysate of transfected N2A cells; on-bead digestion, LC-MS/MS; vector IP as control

The chains behind the UniProt entries cited, without tags or fusion partners.
UniProt Q7TQK4: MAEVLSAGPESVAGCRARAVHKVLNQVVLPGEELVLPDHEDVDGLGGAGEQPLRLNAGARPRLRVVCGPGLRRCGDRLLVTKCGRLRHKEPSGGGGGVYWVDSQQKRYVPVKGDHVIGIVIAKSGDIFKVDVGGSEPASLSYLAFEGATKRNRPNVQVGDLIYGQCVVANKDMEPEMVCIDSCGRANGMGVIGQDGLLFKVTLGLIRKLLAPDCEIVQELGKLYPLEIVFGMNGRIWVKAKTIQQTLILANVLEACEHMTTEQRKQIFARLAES
UniProt Q80U58: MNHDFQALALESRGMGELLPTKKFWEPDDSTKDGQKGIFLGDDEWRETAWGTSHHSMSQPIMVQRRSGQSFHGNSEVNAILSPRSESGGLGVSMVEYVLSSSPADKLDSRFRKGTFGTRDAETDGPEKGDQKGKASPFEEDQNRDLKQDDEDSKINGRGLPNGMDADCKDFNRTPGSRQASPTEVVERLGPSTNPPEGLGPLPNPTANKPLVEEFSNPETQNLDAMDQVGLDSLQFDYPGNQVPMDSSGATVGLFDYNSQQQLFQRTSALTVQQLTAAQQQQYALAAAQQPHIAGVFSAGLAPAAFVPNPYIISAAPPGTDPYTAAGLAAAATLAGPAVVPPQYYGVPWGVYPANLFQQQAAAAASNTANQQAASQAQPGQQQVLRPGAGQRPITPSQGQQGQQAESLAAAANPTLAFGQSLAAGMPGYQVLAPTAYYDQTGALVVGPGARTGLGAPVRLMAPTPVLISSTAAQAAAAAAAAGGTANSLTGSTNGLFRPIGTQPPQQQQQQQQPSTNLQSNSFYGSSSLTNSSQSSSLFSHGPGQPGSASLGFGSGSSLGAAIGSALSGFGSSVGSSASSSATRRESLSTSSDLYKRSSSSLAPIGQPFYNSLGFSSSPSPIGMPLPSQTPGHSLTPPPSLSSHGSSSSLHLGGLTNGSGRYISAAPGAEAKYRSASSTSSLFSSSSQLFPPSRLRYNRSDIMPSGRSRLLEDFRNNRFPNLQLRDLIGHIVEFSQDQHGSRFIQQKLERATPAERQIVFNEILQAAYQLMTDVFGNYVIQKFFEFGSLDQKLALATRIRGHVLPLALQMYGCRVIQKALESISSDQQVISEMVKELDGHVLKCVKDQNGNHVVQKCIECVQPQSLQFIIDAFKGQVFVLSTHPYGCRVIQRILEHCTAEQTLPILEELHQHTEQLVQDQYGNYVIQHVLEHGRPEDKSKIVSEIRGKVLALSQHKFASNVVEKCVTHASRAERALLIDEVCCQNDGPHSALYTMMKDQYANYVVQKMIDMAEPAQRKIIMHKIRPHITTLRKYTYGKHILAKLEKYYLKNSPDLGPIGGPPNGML
UniProt Q80U78: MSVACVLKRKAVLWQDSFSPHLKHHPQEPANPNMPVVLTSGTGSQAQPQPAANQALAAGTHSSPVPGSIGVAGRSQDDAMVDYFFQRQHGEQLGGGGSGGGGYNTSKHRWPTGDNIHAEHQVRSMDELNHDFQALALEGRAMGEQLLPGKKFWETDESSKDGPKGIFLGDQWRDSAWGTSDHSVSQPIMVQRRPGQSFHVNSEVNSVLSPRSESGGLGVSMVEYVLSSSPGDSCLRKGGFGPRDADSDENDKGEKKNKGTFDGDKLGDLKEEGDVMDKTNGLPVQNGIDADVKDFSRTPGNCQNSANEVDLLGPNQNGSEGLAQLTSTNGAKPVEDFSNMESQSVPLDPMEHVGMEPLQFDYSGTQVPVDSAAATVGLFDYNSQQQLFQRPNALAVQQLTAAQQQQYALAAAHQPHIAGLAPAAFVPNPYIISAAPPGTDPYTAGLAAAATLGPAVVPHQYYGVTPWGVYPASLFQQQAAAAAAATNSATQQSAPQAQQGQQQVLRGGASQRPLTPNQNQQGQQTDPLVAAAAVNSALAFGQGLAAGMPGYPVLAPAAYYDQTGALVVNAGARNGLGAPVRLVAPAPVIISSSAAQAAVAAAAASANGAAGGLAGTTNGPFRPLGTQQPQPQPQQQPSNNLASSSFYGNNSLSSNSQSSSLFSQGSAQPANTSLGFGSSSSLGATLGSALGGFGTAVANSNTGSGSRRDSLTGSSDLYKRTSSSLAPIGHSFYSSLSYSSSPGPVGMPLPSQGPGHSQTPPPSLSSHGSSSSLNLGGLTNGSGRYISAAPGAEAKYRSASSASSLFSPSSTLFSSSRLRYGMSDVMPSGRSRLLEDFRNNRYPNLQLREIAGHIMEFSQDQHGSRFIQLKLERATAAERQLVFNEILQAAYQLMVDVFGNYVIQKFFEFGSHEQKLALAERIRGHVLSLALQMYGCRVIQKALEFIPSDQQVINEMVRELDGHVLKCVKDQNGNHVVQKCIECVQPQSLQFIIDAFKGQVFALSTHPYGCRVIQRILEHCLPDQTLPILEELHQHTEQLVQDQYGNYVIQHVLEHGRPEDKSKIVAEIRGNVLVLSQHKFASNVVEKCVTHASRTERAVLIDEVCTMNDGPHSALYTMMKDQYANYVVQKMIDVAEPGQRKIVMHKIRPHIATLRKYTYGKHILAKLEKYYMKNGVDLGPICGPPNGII

Row | binding | Substance
1 | binds | PUM2 (from UniProt Q80U58 1-1066)
2 | binds | PUM1 (from UniProt Q80U78 1-1189)

From publication PMC10875230
